The record followed here is PubChem BioAssay AID2685 (National Center for Advancing Translational Sciences (NCATS), 2010).

The assay can be described thus: qHTS Assay for Lipid Storage Modulators in Drosophila S3 Cells.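 On cell number change: cells counted by Cell Tracker Red CMTPX staining in the red channel.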 Particulars: BODIPY lipid droplet fluorescence, 18-24 h; for cell number change: measured here: cell count max response, cells fed with added oleic acid. The method in brief:
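Drosophila S3 cells loaded with oleic acid (400 uM, as added) and compounds at several concentrations; lipid droplets imaged by 488-nm laser-scanning cytometry, 500–530 nm intensity and object ratio to cell channel. Percent activity normalized to 20 uM Triacsin C.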
On the technique in general: Quantitative high-throughput screening tests each substance at several concentrations.

[1] abbreviates: measured here: cell number channel AC50, cells fed with added oleic acid.
Where [2] appears, read: measured here: lipid fluorescence (Fed channel) AC50, cells fed with added oleic acid.

A word on the AC50: it is the concentration giving half of the maximal activity seen. High values mean activity only at high concentration, low ones activity at low concentration.

This is one part of the list. These are further read-outs of the screen, such as a control signal, another cell line or another target. No call is given for them. Compounds called inactive in the main read-out are mostly missing here. Potencies come from curve fits of mixed quality, noted in brackets.

For `Cc1ccc(-n2nnnc2SCC(=O)N2CCc3ccccc3C2)c(C)c1`, under setting [1], the AC50 was 6.51 µM [rising, single point].

As for `COC(=O)c1ccc(COC(=O)CNS(=O)(=O)c2ccccc2)cc1`, the cell number change amounted to 12.1%. For the same molecule, the AC50 under setting [2] was 11.6 µM [rising, partial curve].

As to `O=C(NCC(c1ccco1)N1CCCC1)c1cccc(NS(=O)(=O)c2ccccc2)c1` (stereo unspecified), the cell number change turned out to be 23%. In addition, the AC50 under setting [2] was 16.4 µM [rising, partial curve].

Regarding `CCc1ccc(NC2=NC(C(=O)NC3CCCCC3)CC(=O)N2)cc1` (stereo unspecified), the cell number change is -6.55%. The AC50 under setting [2] was 1.84 µM [falling, full curve].

With `O=C(CN1CCN(S(=O)(=O)c2ccc(F)cc2)CC1)Nc1ccccc1C(=O)NC1CC1`, the cell number change was 25%. Besides, the AC50 under setting [2] is 0.13 µM [rising, full curve, poor fit].

For `CCc1n[nH]c(=S)n1N=C1CCC(C)CC1` (stereo unspecified), the cell number change was -10.2%.

In the case of `Cc1ccc(C(=O)COC(=O)c2cn3ccccc3n2)cc1`, the cell number change amounted to 35.1%. For the same molecule, under setting [1], the AC50 was 25.9 µM [rising, single point].

Regarding `O=C(COC(=O)c1ccc(S(=O)(=O)N2CCCC2)cc1)NCc1cccs1`, the cell number change is 31.4%. The AC50 under setting [1] was 32.6 µM [rising, single point].

In the case of `CCOC(=O)Nc1sc(NS(=O)(=O)c2ccc(C)cc2)nc1C`, the cell number change worked out at 36.8%. Further, under setting [1], the AC50 is 29.1 µM [rising, single point].

`Cn1nc(C(F)(F)F)c(CO)c1Sc1ccc(F)cc1`: the cell number change is 7.69%. Under setting [1], the AC50 was 0.116 µM [falling, full curve, poor fit].

`Cn1cc(CN2CCC(C(O)c3cccs3)CC2)c(-c2cccc(Cl)c2)n1` (stereo unspecified): the cell number change came to 3.99%. For the same molecule, under setting [2], the AC50 was 11.6 µM [rising, single point].

As to `CCN1C(=O)/C(=C2/C(=O)N3c4c(cc(OC(C)=O)cc42)C(C)=CC3(C)C)SC1=S`, the cell number change is -20.6%. Further, under setting [1], the AC50 is 0.731 µM [falling, full curve, poor fit].

For `CCc1ccc(NC(=O)c2cc3c(C)nc4ccccc4c3o2)cc1`, the cell number change was found to be 6.37%. Further, the concentration at half-maximal activity (AC50) under setting [2] was 4.61 µM [rising, single point].

For the molecule `O=C(Cc1cccs1)Nc1cc(SCCO)cc([N+](=O)[O-])c1`, the cell number change was found to be 31.6%. The AC50 under setting [1] was 18.4 µM [rising, single point]. In addition, the AC50 under setting [2] is 14.6 µM [rising, partial curve].

On to `CCOC(=O)c1c(C)[nH]c(C(=O)COC(=O)c2cn(CC)c3nc(C)ccc3c2=O)c1C`, for which the cell number change worked out at 9.46%.

As to `CCCCNc1ccc(S(N)(=O)=O)cc1[N+](=O)[O-]`, the AC50 under setting [2] was 16.4 µM [rising, single point].

As for `Cc1ccc(C)c(OCCC(=O)Nc2ccc3c(c2)OCO3)c1`, the cell number change was -36%. For the same molecule, under setting [1], the AC50 was 1.16 µM [falling, full curve, poor fit].

Turning to `Cn1c(COc2nnc(-c3ccc(Cl)cc3)c3ccccc23)nc2ccccc21`, the cell number change turned out to be 8.93%.

As for `COc1ccc(CCn2c(=N)c(C(=O)NCC3CCCO3)cc3c(=O)n4cccc(C)c4nc32)cc1` (stereo unspecified), the cell number change was -3.98%. In addition, the AC50 under setting [2] is 1.16 µM [falling, full curve].

As to `O=C(Cc1cccs1)N1CCN(C(=O)C2CCCO2)CC1` (stereo unspecified), the cell number change was -104%.

Consider `O=C(NN1C(=O)C2C(c3ccccc3)C=CC(c3ccccc3)C2C1=O)c1ccncc1` (stereo unspecified), for which the cell number change came to 15.1%.

As to `CC1=C(Nc2ccc(C(=O)O)cc2)C(=O)c2ccccc2C1=O`, the cell number change is 69.7%. In addition, the AC50 under setting [1] is 29.1 µM [rising, single point].

For `O=C(O)c1ccccc1-c1ccccc1C(=O)NCc1ccccc1F`, the cell number change was 8.8%. In addition, the AC50 under setting [2] is 20.6 µM [falling, single point].

With `O=C(NCc1ccco1)c1ccc2c(c1)C(=O)N(Cc1ccccc1)C2=O`, the half-maximal activity concentration (AC50) under setting [1] was 2.59 µM [rising, partial curve].

Regarding `Cc1ccc(CNC(=O)COC(=O)Cn2nc(C)c([N+](=O)[O-])c2C)cc1`, the cell number change was -8.62%. Moreover, the AC50 under setting [1] is 0.082 µM [falling, full curve, poor fit].

In the case of `COc1ccc(OC)c(NC(=O)CCN2CCC(C)CC2)c1`, the cell number change was -185%. Moreover, under setting [1], the AC50 is 29.1 µM [falling, partial curve]. For the same molecule, under setting [2], the AC50 is 20.6 µM [falling, partial curve].

`Cc1cc(C)n(CC(O)COc2ccc(C(C)C)c(C)c2)n1` (stereo unspecified): the cell number change was 21.4%.

For the molecule `Cc1ccc(-c2nnc(C)c(N3CCCC3)n2)cc1`, the cell number change worked out at 69.5%. The AC50 under setting [2] was 3.66 µM [rising, full curve].

For the molecule `NC(=O)c1ccc2c(=O)n3c(-c4cc(Cl)c(N)c(Cl)c4)csc3nc2c1`, the cell number change is -10.1%. The AC50 under setting [2] was 0.291 µM [rising, full curve, poor fit].

For `Cc1ccccc1C(=O)NNC(=S)NC(=O)COc1ccccc1`, the cell number change amounted to 13%. Moreover, under setting [1], the half-maximal activity concentration (AC50) is 0.731 µM [falling, full curve, poor fit]. Besides, the AC50 under setting [2] was 0.651 µM [falling, single point].

For the molecule `N#Cc1c(NC(=O)CSc2ncc(-c3ccccc3)n2CC2CCCO2)sc2c1CCCC2` (stereo unspecified), the cell number change was determined as 43.8%. For the same molecule, the AC50 under setting [1] was 32.6 µM [rising, single point].

Regarding `O=C(NCc1ccc(OC(F)(F)F)cc1)C1CC2Cn3c(nc4ccccc43)C2N1c1ccccc1` (stereo unspecified), the cell number change was determined as 9.28%.

On to `CCc1cc2c(SCC(=O)NCC3CCCO3)ncnc2s1` (stereo unspecified), for which the cell number change was -26.9%. In addition, the AC50 under setting [2] is 6.51 µM [falling, partial curve, poor fit].

Take `CC1CCN(S(=O)(=O)c2ccc(S(=O)(=O)NCc3ccccc3)cc2)CC1`: the cell number change was -17.8%. The AC50 under setting [2] was 0.184 µM [falling, partial curve, poor fit].

Regarding `Cc1cc2c(=O)n(CC(=O)N3CCN(c4ccccc4)CC3)cnc2s1`, under setting [2], the AC50 is 0.58 µM [falling, single point].

On to `O=C(COC(=O)/C=C/c1cccc(F)c1)Nc1ccccc1`, for which the cell number change was found to be 131%. Also, the AC50 under setting [1] is 29.1 µM [rising, partial curve, poor fit].

`COc1ccccc1C(=O)Nc1ccc2c(c1)nc1n2CCN(C2CCCCC2)C1`: the cell number change was -18.7%. Besides, under setting [2], the concentration at half-maximal activity (AC50) was 2.31 µM [falling, partial curve].

In the case of `C=CCC1(CC=C)CCCN1C(=O)c1cc(COc2ccc(C)nc2)on1`, the cell number change is -8.87%. Besides, under setting [2], the AC50 is 29.1 µM [falling, single point].

Regarding `C/C(=N\Nc1nc(-c2ccccc2)cs1)c1cccs1`, the cell number change was -50%. Further, the AC50 under setting [1] was 3.66 µM [falling, full curve, poor fit]. Further, the concentration at half-maximal activity (AC50) under setting [2] is 0.366 µM [rising, partial curve, poor fit].

For `O=P(c1ccccc1)(c1ccccc1)N(c1ccccc1)c1ccccc1`, the cell number change was -3.01%. The AC50 under setting [2] was 29.1 µM [rising, single point].

Consider `CC(C)NC(=O)c1ccc(NC(=O)CC2SC(N3CCCC3)=NC2=O)cc1` (stereo unspecified), for which the cell number change is -53.7%. Also, the AC50 under setting [1] is 18.4 µM [falling, single point]. In addition, the AC50 under setting [2] is 18.4 µM [falling, single point].

As to `COC(=O)c1ccc(NC(=O)N2CCOCC2)cc1`, the AC50 is 3.26 µM [falling, partial curve] under setting [1] and 1.16 µM [falling, full curve] under setting [2].

Turning to `CCn1c(SCC(=O)OCc2ccccc2)nc2c1c(=O)n(C)c(=O)n2C`, the cell number change is -45.5%. Further, the AC50 under setting [1] is 29.1 µM [falling, single point].

Consider `CC1CCCN(C(=O)C2CCN(CCCc3ccccc3)CC2)C1` (stereo unspecified), for which the cell number change is -2.46%.

Regarding `COc1ccc(OC)c(NC(=O)C2CC2c2ccccc2)c1` (stereo unspecified), the cell number change came out at 9.85%.

For `Cc1ccc(N2C(=O)c3ccccc3C2Nc2ccc(S(=O)(=O)N3CCCCC3)cc2)nc1` (stereo unspecified), the cell number change was -8.54%.

With `O=C1CC(Nc2cc(=O)[nH]c(=O)[nH]2)C(=O)N1c1ccccc1Cl` (stereo unspecified), the cell number change was -25.5%. Moreover, the AC50 under setting [1] was 2.59 µM [falling, full curve, poor fit]. For the same molecule, the AC50 under setting [2] is 2.06 µM [falling, full curve].

Take `COc1ccc(-c2[nH]ncc2C2N=C(N)Nc3nc4ccccc4n32)cc1` (stereo unspecified): the cell number change stood at 25.8%. Moreover, the concentration at half-maximal activity (AC50) under setting [2] is 11.6 µM [rising, single point].

On to `COc1cccc(CNC(=O)CCC2CCCN(C(=O)c3cc4ccccc4o3)C2)c1` (stereo unspecified), for which the cell number change was -42.9%. The AC50 under setting [1] was 29.1 µM [falling, single point].

Regarding `O=C(c1cc2cc([N+](=O)[O-])ccc2s1)N1CCCCC1`, the cell number change is -12.6%. Under setting [1], the AC50 was 1.03 µM [rising, full curve].

Regarding `CC1=C(C(=O)OCC2CCCO2)C(c2ccsc2)C2=C(CC(C)(C)CC2=O)N1` (stereo unspecified), the cell number change was 24.2%. Besides, under setting [2], the AC50 is 29.1 µM [rising, single point].

Take `O=C(COC(=O)c1cncc(Br)c1)NC1CCCCCC1`: the cell number change was -9.77%. Under setting [2], the AC50 is 0.259 µM [falling, partial curve, poor fit].

Consider `CCOCCn1c(CN2CCN(C(c3ccccc3)c3ccccc3)CC2)nc2c1c(=O)n(C)c(=O)n2C`, for which the cell number change is 14.4%. Besides, the AC50 under setting [2] was 3.66 µM [rising, full curve, poor fit].

With `O=C(NC1CCN(C(=O)Nc2ccc(F)cc2)CC1)c1cccc(F)c1`, the cell number change amounted to 13.5%. In addition, the AC50 under setting [2] is 16.4 µM [rising, partial curve].

Consider `Cc1cccc(Nc2nc(-c3ccccc3)cs2)n1`, for which the cell number change was -25.9%.

For the molecule `Cc1ccc(S(=O)(=O)/N=C(\Nc2cccc(C)c2)Nc2nc(C)cc(C)n2)cc1`, the cell number change is 6.59%.

For the molecule `CN(C)C(=O)N1CCC(C(=O)NCC2CCCO2)CC1` (stereo unspecified), the cell number change is -72.4%. For the same molecule, under setting [1], the AC50 was 23.1 µM [falling, single point]. Besides, the concentration at half-maximal activity (AC50) under setting [2] was 20.6 µM [falling, partial curve].

Regarding `Cc1cc(C)nc(NS(=O)(=O)c2ccc(Br)s2)c1`, the cell number change is -4.12%. Besides, the AC50 under setting [1] is 0.0058 µM [falling, full curve, poor fit]. Under setting [2], the AC50 was 0.92 µM [rising, full curve, poor fit].

In the case of `O=C(Cc1ccc(Cl)cc1)Nc1ccc(S(=O)(=O)Nc2cnc3ccccc3n2)cc1`, the cell number change was -52.4%. In addition, under setting [1], the AC50 is 29.1 µM [falling, single point]. In addition, the AC50 under setting [2] was 29.1 µM [falling, single point].

As to `CC1(C)NC(=O)N(CCOCCSc2ccccc2)C1=O`, the cell number change was -37.5%. For the same molecule, under setting [1], the AC50 was 18.4 µM [falling, single point]. The AC50 under setting [2] was 23.1 µM [falling, single point].

As for `CN(C(=O)COC(=O)CNC(=O)CNC(=O)c1ccc(Cl)cc1Cl)c1ccccc1`, the cell number change is -29.1%. Besides, under setting [2], the AC50 is 22.4 µM [falling, single point].
